Experimental data as given in PubChem BioAssay AID602296 (Broad Institute, 2012).
In all, about 2,000 compounds went through this assay and about 190 (9.5%) were called active. Another 14% or so got no clear call; they are omitted.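 Rule for the calls: active = fitted activation curve crossing 40% at a concentration no higher than the sample's top valid tested dose; inconclusive = flat fitted curve at 30% to 70% activation, or poor curve fit; inactive = signal decrease, flat curve within 30%, or the rest.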 The list lacks most of the strong results.

Experiment: HSF-1 reporter activators over prolonged exposure, confirmation, cell-based, mouse, luciferase, cherry-pick, dose (AID 602296);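 note: test compounds applied by themselves with no MG132 co-treatment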
Details: NIH3T3-HGL HSF-1 response element luciferase, 48 h; at 26 µM (top of the series) unless noted

activation, inactive:
Cc1[nH][nH]c(=O)c1C=NCc1cccs1 2.6%
CC1=CC(=O)C(C(C)C)=C/C1=N/OS(=O)(=O)c1ccccc1 -102%
COc1ccc(-n2c(=O)c3c4c(sc3n(CC(N)=O)c2=O)CCCCC4)cc1 0.737%
Cc1cc(SC#N)cc(C)c1NC(=O)CCl -40%
CCN1C(=O)c2cccc3c(S(=O)(=O)Nc4ncccc4C)ccc1c23 -42.9%
Cc1ccccc1Cn1c(-c2cncs2)nc2ccccc21 3.23%
O=C(NCCc1ccccc1)N1c2ccccc2Sc2ccccc21 -48.5%
COc1cc(-c2nnc3sc(Cc4ccc(Cl)cc4)nn23)cc(OC)c1OC -27.6%
Cc1noc(C)c1COC(=O)c1ccccc1Oc1ccccc1 -13.4%
Fc1ccc(/C=C2\CCCC3=C2Nc2ncnn2C3c2ccc(F)cc2)cc1 (stereo not drawn) -101%
Cc1ccc(C)c(S(=O)(=O)c2c(N)n(/N=C/c3ccco3)c3nc4ccccc4nc23)c1 -31.8%
Cc1cc(NC(=O)CCC(=O)N(CC(=O)NC2CCCC2)Cc2cccs2)no1 9.09%
O=C(C#Cc1ccccc1)c1cccc([N+](=O)[O-])c1 -96.1%
CCOc1cc(/C=C2\CCCc3c2nc2ccccc2c3C(=O)O)ccc1OC 8.24%
O=S(=O)(c1ccc(-n2cnnn2)cc1)N1CCNCC1 -0.865%
Cc1c(NC(=O)C(C)N2CC(C)OC(C)C2)c(=O)n(-c2ccccc2)n1C (stereo not drawn) 6.22%
O=C(c1ccco1)N(Cc1ccc([N+](=O)[O-])cc1)c1ccc(Br)cc1 -59.4%
CCOC(=O)c1sc2nc(CC(=O)OC)nc(NCc3ccco3)c2c1C -4.65%
Cc1cccc(-c2cccc(NC(=O)C3CCCN(C(=O)c4cccnc4)C3)c2)c1 (stereo not drawn) 4.95%
Cc1ccc(C2=NN(C(=O)c3cccs3)C(c3ccccc3O)C2)cc1 (stereo not drawn) 2.65%
C/C=C/c1c(F)c(F)c(Oc2ccc(C(=O)O)cc2)c(F)c1F 1.8%
COc1ccccc1CNCC(c1ccccc1)c1ccccc1 0.928%
Nc1nnnn1/N=C\c1ccc(Cl)c([N+](=O)[O-])c1 3.22%
COc1ccc(C2c3ccc(O)cc3Oc3ncn(Cc4ccco4)c(=N)c32)cc1 (stereo not drawn) -37.5%
Cc1ccc(Sc2ccc(NC(=O)CCl)cc2)c(C)c1 -16.8%
COc1ccc(CCNCc2cc(C)n(-c3ccc(OC)cc3)c2C)cc1 -9.47%
O=C(O)CCn1[nH]c(=O)ccc1=O -2.04%
O=C(COC(=O)COc1cccc(Br)c1)Nc1c(Cl)cccc1Cl -10.5%
Cc1ccc(Cn2cc(S(=O)(=O)c3ccc(Cl)cc3)c(=O)c3cc(F)ccc32)cc1 -16%
CN1CCN(C(=O)/C(=C/c2cccnc2)NC(=O)c2cccc(Br)c2)CC1 -1.28%
COC(=O)[C@@H](NC(=O)NC1CCCc2ccccc21)C(C)C (stereo partly drawn) 18.5%
C=CCNC(=S)NNC(=O)c1cccn(Cc2ccc(Cl)c(Cl)c2)c1=O 2.28%
Cc1cccc(N2C(=N)SCC2=O)c1C -10.8%
CCS(=O)(=O)Nc1ccc2[nH]c(=O)[nH]c2c1 3.52%
CCOc1ccc(OCCC(=O)OCC(=O)N2CCN(S(=O)(=O)c3ccc(Cl)cc3)CC2)cc1 -103%
Cc1ccc(/C=C/C(=O)c2ccccc(=O)c2O)cc1C 189%
C=CCn1c(C2CCCCC2)n[nH]c1=S -1.72%
O=C(CCN1C(=O)c2ccccc2C1=O)Nc1sc2c(c1C(=O)NCC1CCCO1)CCC2 (stereo not drawn) 12.4%
CCOc1ccc(S(=O)(=O)NNC(=S)Nc2ccc(Br)cc2)cc1 0.555%
CC(=O)c1cccc(N=Cc2c(O)c3ccccc3oc2=O)c1 27.1%
Cc1csc(-c2cnn(-c3ccccc3)c2NC(=O)c2cccc(C(F)(F)F)c2)n1 -1.93%
CC1CC(=O)N(c2ccc(Br)cc2)C(=O)C1 -2.72%
CC(=O)Nc1ccc(N2C(=O)C3C4CC(=O)C(c5ccccc54)C3C2=O)cc1 (stereo not drawn) -4.5%
CCOC(=O)Nc1ccc2c(c1)N(C(=O)CCN1CCOCC1)c1ccccc1S2=O (stereo not drawn) -22.4%
COc1ccc(CNC(=O)Oc2ccccc2)cc1Cl 3.54%
COc1ccc(F)cc1S(=O)(=O)Nc1ccc2c(c1)OCO2 -1.5%
CCCC(C(=O)NCc1ccco1)N(C(=O)CNS(=O)(=O)c1ccc(Cl)cc1)C1CCCC1 (stereo not drawn) -5.22%
CCCOC(=O)c1ccc(Oc2cn[nH]c2-c2ccc(O)cc2O)cc1 3.1%
CSc1nc(S(=O)(=O)c2ccc(C)cc2)c(Cl)s1 4.27%
COc1ccc(C(=O)n2nc(-c3ccc(Cl)cc3)nc2N)cc1OC 10.7%
Cc1ccc(Cl)c2c1=NC(=O)C=2c1[nH]c(=S)[nH]c1O -16.3%
CCCN(CCC)CCCNC(=O)CS(=O)Cc1nc(-c2ccc(OC)c(OC)c2)oc1C (stereo not drawn) -0.016%
O=C(c1cn(CC(=O)N2CCCCC2)c2ccccc12)C1CC1 -0.249%
Cc1nn(Cc2ccccc2Cl)c(C)c1NC(=O)CCCn1nc([N+](=O)[O-])c(Cl)c1C -5.26%
CCOC(=O)c1nnc(-c2ccccc2)nc1Sc1ccccc1Cl -101%
COc1cccc(CSc2nnc(C(F)(F)F)n2Cc2ccc(F)cc2)c1 -2.57%
O=C(NCCc1nc2ccccc2[nH]1)/C(=C/c1ccc(F)cc1)NC(=O)c1ccco1 7.33%
COc1ccc(S(=O)(=O)N(C)c2ccc(C(=O)NCc3ccccn3)cc2)cc1 -7.8%
CCC(=O)Nc1ccccc1C(=O)OCC(=O)c1ccccc1 -72.4%
Cc1cc(OCC(=O)N(Cc2ccco2)C2CCS(=O)(=O)C2)cc(C)c1Cl (stereo not drawn) 5.75%
COc1ccc(C2NC(=O)CCC2[N+](=O)[O-])c(OC)c1 (stereo not drawn) -2.53%
Cc1nn(C)cc1/C=N\NC(=O)c1ccc2c(c1)c(C)c(C)n2Cc1ccccc1 -36.8%
CCOC(=O)Cn1c(S(=O)(=O)Cc2ccc(F)cc2)nc(-c2ccccc2)c1-c1ccccc1 -37%
CCn1cc([N+](=O)[O-])c(C(=O)N2N=C(c3ccc(Cl)c(Cl)c3)CC2c2ccccc2O)n1 (stereo not drawn) -83.2%
Cc1ccc(C(=O)Oc2oc(-c3ccccc3)nc2C=Nc2ccc(N(C)C)cc2)cc1 -59%
CCOC(=O)C1=C(c2ccc(OC)cc2)C(=O)c2ccccc2C1=O -99.7%
Cc1nc2cc3nc(C(F)(F)F)[nH]c3cc2[nH]1 -1.68%
C=CCn1c(=O)c2c3c(sc2n2c(Nc4ccccc4)nnc12)CCCC3 -63%
CS(=O)(=O)c1sc(C#N)c2c1C(=O)CC(c1ccccc1)C2 (stereo not drawn) -102%
O=C(Cc1c(O)c2ccccc2oc1=O)c1ccc(C(F)(F)F)cc1 9.57%
COc1cccc(NC(=O)CN2C(=O)COc3ccc(S(=O)(=O)N4CCC(C)CC4)cc32)c1 -21.1%
O=C1NN(c2ccccc2)C(=O)/C1=C\c1ccc2c(c1)OCO2 5.08%
Cc1ccc(O)c(NC(=O)CSc2n[nH]c(-c3ccccc3)n2)c1 -16.8%
COC(=O)[C@H](CCSC)NC(=O)Nc1cccc(C)c1C -4.71%
O=[N+]([O-])c1ccc(Sc2nc3ccccc3o2)c([N+](=O)[O-])c1 -101%
Brc1ccc(CSc2nnc(-c3ccccn3)n2Cc2ccco2)cc1 -64.8%
COc1cc(C(Nc2ccccn2)c2ccc3ccc(C)nc3c2O)cc(OC)c1O (stereo not drawn) -95.5%
CC(C)CC(NS(=O)(=O)c1ccc2c(c1)oc(=O)n2C)C(=O)NC1CCCc2ccccc21 (stereo not drawn) 1.38%
CCN(C(=O)c1cccc(S(=O)(=O)N2CCCCC2)c1)C1CCS(=O)(=O)C1 (stereo not drawn) 6.03%
COc1ccc(C(=O)/C=C/c2ccc(OC)c(Cn3nnc4ccccc43)c2)cc1 36.6%
O=C(Nc1ccc(Nc2ccccc2)cc1)c1cc([N+](=O)[O-])ccc1Cl -101%
CC1CN(C(=O)CS(=O)(=O)Cc2ccccc2)CC(C)O1 (stereo not drawn) 5.95%
COC(=O)Cn1c2ccc(OC)cc2c2nc(C)sc21 -3.21%
COc1cccc(-c2nc(N3CCN(c4ccccc4)CC3)c3ccccc3n2)c1O 22.3%
COCCNC(=O)/C(C#N)=C/c1ccc(OC(=O)c2cccs2)c(OC)c1 -13.7%
Cc1ccc(NNC(=O)c2cccs2)cc1Cl -34.3%
COc1cc2c3c(c1OC)C1(C=CC(=O)C=C1)CC3N(C(=O)c1ccccc1)CC2 (stereo not drawn) -1.28%
CCc1cc2c(SCC#N)ncnc2s1 11.3%
COc1ccccc1-c1ccc(SCC(=O)Nc2cc(C)on2)nn1 5.23%
COc1ccc2c(C)cc(N3CCCCCC3)nc2c1 -3.9%
NCCc1nnc(SCc2ccc(F)cc2)o1 3.81%
N#Cc1cc(Oc2cccc3cccnc23)c(-n2nnc3ccccc32)cc1C#N -101%
N#CC1=C(N)Oc2c(O)cc3ccccc3c2C1c1ccsc1 (stereo not drawn) -50%

Entries shown so far containing an aryl thioether with sulfur outside any ring, in the order listed:
activation, inactive:
Cc1ccc(Sc2ccc(NC(=O)CCl)cc2)c(C)c1 -16.8%
CSc1nc(S(=O)(=O)c2ccc(C)cc2)c(Cl)s1 4.27%
CCOC(=O)c1nnc(-c2ccccc2)nc1Sc1ccccc1Cl -101%
COc1cccc(CSc2nnc(C(F)(F)F)n2Cc2ccc(F)cc2)c1 -2.57%
Cc1ccc(O)c(NC(=O)CSc2n[nH]c(-c3ccccc3)n2)c1 -16.8%
O=[N+]([O-])c1ccc(Sc2nc3ccccc3o2)c([N+](=O)[O-])c1 -101%
Brc1ccc(CSc2nnc(-c3ccccn3)n2Cc2ccco2)cc1 -64.8%
CCc1cc2c(SCC#N)ncnc2s1 11.3%
COc1ccccc1-c1ccc(SCC(=O)Nc2cc(C)on2)nn1 5.23%
NCCc1nnc(SCc2ccc(F)cc2)o1 3.81%

Random excerpt: two compounds from above
activation, inactive:
COc1cc(C(Nc2ccccn2)c2ccc3ccc(C)nc3c2O)cc(OC)c1O (stereo not drawn) -95.5%
Cc1ccc(NNC(=O)c2cccs2)cc1Cl -34.3%
